Data on 1 compound can be found in patent publication US11852632B2, “Cancer test device, cancer test method, and staining agent for use in cancer test” (MIE UNIVERSITY, priority 2016, dated 2023).

Molecules are shown by their SMILES.

The series has as its system ras-family cancer-related gene product. As to the kind of experiment: Living body staining of large intestine inner wall with stain containing phloxine, multiphoton laser microscope imaging. It counts as in vivo, laboratory mouse.

Regarding `O=C([O-])c1c(Cl)c(Cl)c(Cl)c(Cl)c1-c1c2cc(Br)c(=O)c(Br)c-2oc2c(Br)c([O-])c(Br)cc12.[Na+].[Na+]` [phloxine], the “ratio of the region stained in the red fluorescence color to the entire screen (region dominated by ras-family cancer-related gene expression)” value (specimen 1, site where cancer cells developed, FIG. 2A (b), 1 wt % phloxine, 840 nm) was found to be 80%. Besides, the “ratio of the region stained in the red fluorescence color to the entire screen (ras-family cancer-related gene expression)” value (specimen 2, FIG. 2B (b)) turned out to be 90% and the “ratio of the region stained in the red fluorescence color to the entire screen (ras-family cancer-related gene expression)” value (specimen 3, FIG. 2C (b)) came out at 75%. Besides, the “red fluorescence color in the screen” value (specimen 4, healthy living cells, FIG. 3) is recorded as “no green, red, or yellow fluorescence color is present in the screen”.
